In US20210363170A1, “4'-THIO-NUCLEOTIDE AND -NUCLEOSIDE PRODRUGS FOR THE TREATMENT OF CANCER” (Southern Research Institute, priority 2018, published 2021):
Some entries share one result that the patent states for a list of compounds.

Tested on: DNMT-1
Assay: Western blot analysis of DNMT-1 depletion in NCI-H23 cells
Assay type: cell-based
Settings: 96 hours

SMILES | depletion of DNMT-1 in NCI-H23 cells
Nc1ncn([C@H]2C[C@H](O)[C@@H](CO)S2)c(=O)n1 [Aza-T-dCyd, 5-aza-4′-Thio-2′-deoxycytidine, reference compound] | depletion of DNMT-1
Nc1ccn([C@H]2C[C@@H](O)[C@@H](CO)S2)c(=O)n1 [T-dCyd, 4-amino-1-[(2R,4R,5R)-4-hydroxy-5-(hydroxymethyl)thiolan-2-yl]pyrimidin-2-one, reference compound] | depletion of DNMT-1
